Test results as given in article PMC4248064.
These are yes or no findings as the source states them, for the method shown. In cells and extracts the contact can be indirect. Some entries that bind do so weakly or less than the wild type.

Chains of the proteins cited; added tags and fusions are not shown.
UniProt P35222: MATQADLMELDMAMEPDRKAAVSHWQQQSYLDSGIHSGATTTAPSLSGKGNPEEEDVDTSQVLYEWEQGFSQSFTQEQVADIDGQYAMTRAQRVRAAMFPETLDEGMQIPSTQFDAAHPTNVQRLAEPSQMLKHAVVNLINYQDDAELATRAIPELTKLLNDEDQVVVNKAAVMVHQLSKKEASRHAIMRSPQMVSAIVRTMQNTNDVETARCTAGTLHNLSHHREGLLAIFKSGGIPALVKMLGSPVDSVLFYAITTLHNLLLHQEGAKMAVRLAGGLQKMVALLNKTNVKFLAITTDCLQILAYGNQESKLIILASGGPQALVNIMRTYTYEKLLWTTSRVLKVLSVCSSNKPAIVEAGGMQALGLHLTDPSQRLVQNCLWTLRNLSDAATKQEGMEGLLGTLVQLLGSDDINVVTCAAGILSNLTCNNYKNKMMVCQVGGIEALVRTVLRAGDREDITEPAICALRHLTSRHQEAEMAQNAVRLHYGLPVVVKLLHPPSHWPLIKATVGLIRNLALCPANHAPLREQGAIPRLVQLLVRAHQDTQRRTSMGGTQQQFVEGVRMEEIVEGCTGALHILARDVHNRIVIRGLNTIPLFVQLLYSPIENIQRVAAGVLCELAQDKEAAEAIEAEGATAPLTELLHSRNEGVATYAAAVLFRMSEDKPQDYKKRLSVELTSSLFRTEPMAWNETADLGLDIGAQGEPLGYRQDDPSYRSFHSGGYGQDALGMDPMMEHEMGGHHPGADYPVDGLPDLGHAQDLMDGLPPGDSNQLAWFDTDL
UniProt O15169: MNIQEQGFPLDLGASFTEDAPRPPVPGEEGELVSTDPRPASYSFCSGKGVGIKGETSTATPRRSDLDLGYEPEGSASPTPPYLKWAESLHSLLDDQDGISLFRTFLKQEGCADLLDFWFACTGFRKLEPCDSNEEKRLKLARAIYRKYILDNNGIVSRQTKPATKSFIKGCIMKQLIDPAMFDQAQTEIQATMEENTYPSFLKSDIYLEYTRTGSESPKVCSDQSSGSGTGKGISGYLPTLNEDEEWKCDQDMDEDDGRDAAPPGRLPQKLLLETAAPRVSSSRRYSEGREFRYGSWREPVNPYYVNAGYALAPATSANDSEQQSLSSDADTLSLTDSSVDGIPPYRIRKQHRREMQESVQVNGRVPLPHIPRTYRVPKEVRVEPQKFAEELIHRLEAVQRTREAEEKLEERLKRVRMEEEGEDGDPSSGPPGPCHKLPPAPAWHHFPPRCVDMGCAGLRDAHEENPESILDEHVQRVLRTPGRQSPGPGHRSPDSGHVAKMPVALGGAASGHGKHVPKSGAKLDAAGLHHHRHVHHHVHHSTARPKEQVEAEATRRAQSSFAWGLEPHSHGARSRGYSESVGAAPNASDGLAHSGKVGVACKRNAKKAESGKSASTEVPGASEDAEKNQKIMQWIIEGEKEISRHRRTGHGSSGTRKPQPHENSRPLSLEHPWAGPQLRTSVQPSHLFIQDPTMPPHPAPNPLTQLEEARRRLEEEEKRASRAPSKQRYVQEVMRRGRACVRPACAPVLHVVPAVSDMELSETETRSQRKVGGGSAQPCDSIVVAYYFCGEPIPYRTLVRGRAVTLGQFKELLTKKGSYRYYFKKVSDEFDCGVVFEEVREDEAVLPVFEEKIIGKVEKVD

What was measured:
[1] = biological target: β-catenin (endogenous, total) (human (endogenous in HEK293T)) (UniProt P35222); assay: co-IP; endogenous proteins, HEK293T cells untreated or treated with Wnt3a-conditioned medium; lysis in 100 mM NaCl, 50 mM Tris pH 7.5, 0.25% Triton X-100; 1 µg antibody (anti-Axin1 or anti-β-catenin), protein G beads, 4°C
[2] = biological target: Axin1 (endogenous) (human (endogenous in HEK293T, SW480, LS174T)) (UniProt O15169); assay: as above
[3] = biological target: Axin1 (endogenous) (human (endogenous in HEK293T, SW480, LS174T)) (UniProt O15169); assay: co-IP; endogenous proteins, SW480 colorectal cancer cells (APC truncated at Q1338); anti-Axin1 precipitation, protein G beads

Row | binding [1] | binding [2] | binding [3] | Substance
1 | binds | – | – | Axin1 (endogenous) (from UniProt O15169 1-862)
2 | – | binds | binds | non-phosphorylated β-catenin (from UniProt P35222 1-781)
3 | – | binds | binds | phosphorylated β-catenin (pS33/pS37/pT41) (from UniProt P35222 1-781)
4 | – | binds | – | β-catenin (endogenous, total) (from UniProt P35222 1-781)
